From US20200392228A1

B1: MAdCAM antibody Clone ID 61 of Table 6 (scFv) (scFv)
scFv: EVQLLESGGGLVQPGGSLRLSCAASEFTFSNAWMSWVRQAPGKGLEWVASISSTSAYIDYADSVKGRFTISRDNSKNTLYLQMNSLRAEDTAVYYCAREVVGATTFDYWGQGTLVTVSSGGGGSGGGGSGGGGSGGGGSDIQMTQSPSSLSASVGDRVTITCRASQSISTWLAWYQQKPGKAPKLLIYAASSLQSGVPSRFSGSGSGTDFTLTISSLQPEDFATYYCQQANAFPPTFGQGTRLEIK
B2: MAdCAM antibody Clone ID 64 of Table 6 (scFv) (scFv)
scFv: EVQLLESGGGLVKPGGSLRLSCAASGFAFSSHWMHWVRQAPGKGLEWVAGTSGSGESRDYADFVKGRFTISRDDSKNTLYLQMNSLKTEDTAVYYCARETYYYYYMDVWGKGTTVTVSSGGGGSGGGGSGGGGSGGGGSDIQMTQSPSSLSASVGDRVTITCRASQGISNYLAWYQQKPGKAPKLLIYDAANLEGGVPSRFSGSGSGTDFTLTISSLQPEDFATYYCQQSDIFPPTFGQGTKVEIK
B3: MAdCAM antibody Clone ID 65 of Table 6 (scFv) (scFv)
scFv: QVQLVQSGAEVKKPGASVKVSCKASGYTFTRHWIHWVRQAPGQGLEWMGWINVKTGGAGYAQKFQGRVTMTRDTSTSTVYMELSSLRSEDTAVYYCARESSGWYGTDVWGQGTTVTVSSGGGGSGGGGSGGGGSGGGGSDIQMTQSPSSLSASVGDRATITCRASQSISNYLAWYQQKPGKAPKLLIYAASSLQSGVPSRFSGSGSGTDFTLTISSLQPEDFATYYCQQSNSFPLTFGGGTKVEIK
B4: MAdCAM antibody Clone ID 4 of Table 6 (scFv) (scFv)
scFv: QVQLVQSGAEVKKPGASVKVSCKASGGTFSSYAISWVRQAPGQGLEWMGSINPSGDTTSYAQKFQGRVTMTRDTSTSTVYMELSSLRSEDTAVYYCAKDKAQWLVGYFDYWGQGTLVTVSSGGGGSGGGGSGGGGSGGGGSDIQMTQSPSSLSASVGDRVTITCQASQDISNSLNWYQQKPGKAPKLLIYAASSLQSGVPSRFSGSGSGTDFTLTISSLQPEDFATYYCQQSYSSVITFGQGTKVEIK
B5: MAdCAM antibody Clone ID 66 of Table 6 (scFv) (scFv)
scFv: EVQLLESGGGLVQPGGSLRLSCAASGFTFSSYWMHWVRQAPGKGLEWVAAISYDGKYKDYEDSVKGRFTISRDNSKNTLYLQMNSLRAEDTAVYYCARENKQWLASFDYWGQGTLVTVSSGGGGSGGGGSGGGGSGGGGSDIQMTQSPSSLSASVGDRVTITCQASQDISNFVNWYQQKPGKAPKLLIYAANLRSGVPSRFSGSGSGTDFTLTISSLQPEDFATYYCQQANSFPVTFGPGTKVDIK
B6: MAdCAM antibody Clone ID 4 of Table 7 (IgG) (antibody, V domains shown)
VH: QVQLVQSGAEVKKPGASVKVSCKASGGTFSSYAISWVRQAPGQGLEWMGSINPSGDTTSYAQKFQGRVTMTRDTSTSTVYMELSSLRSEDTAVYYCAKDKAQWLVGYFDYWGQGTLVTVSS
VL: DIQMTQSPSSLSASVGDRVTITCQASQDISNSLNWYQQKPGKAPKLLIYAASSLQSGVPSRFSGSGSGTDFTLTISSLQPEDFATYYCQQSYSSVITFGQGTKVEIK
B7: MAdCAM antibody Clone ID 5 of Table 7 (IgG) (antibody, V domains shown)
VH: EVQLLESGGGLVQPGGSLRLSCAASGFTFSSYWMHWVRQAPGKGLEWVSSISPGGSNIDYADSVKGRFTISRDNSKNTLYLQMNSLRAEDTAVYYCAREVQLSHYDYWGQGTLVTVSS
VL: B6 VL with Q24R, D28G, N34A, A50G, S91A, Y92N, S94F, V95P, I96F
B8: MAdCAM antibody Clone ID 8 of Table 7 (IgG) (antibody, V domains shown)
VH: QVQLVQSGAEVKKPGASVKVSCKASGYTFTGYHIHWVRQAPGQGLEWMGIINPSGGSTIYAQKFQGRVTMTRDTSTSTVYMELSSLRSEDTAVYYCAKDWSSWYLGPFDYWGQGTLVTVSS
VL: B6 VL with Q24R, D28N, N31S, S93T, S94T, V95P, I96Y
B9: MAdCAM antibody Clone ID 11 of Table 7 (IgG) (antibody, V domains shown)
VH: EVQLLESGGGLVQPGGSLRLSCAASGFTFSDYYMNWVRQAPGKGLEWVSVIGESGGSTYYADSVKGRFTISRDNSKNTLYLQMNSLRAEDTAVYYCAADPVSRWPKHGGGDYWGQGTLVTVSS
VL: B6 VL with Q24R, D28G, N31S, N34A, S53T, S94T, V95P, I96W
B10: MAdCAM antibody Clone ID 17 of Table 7 (IgG) (antibody, V domains shown)
VH: QVQLVQSGAEVKKPGSSVKVSCKASGYTFTDYHIHWVRQAPGQGLEWMGGIVPRSGSTTYAQKFQGRVTITADESTSTAYMELSSLRSEDTAVYYCAKDESSGWYYFDYWGQGTLVTVSS
VL: DIVMTQSPLSLPVTPGEPASISCRSSQSLLHSNGYNYLDWYLQKPGQSPQLLIYSAYNRASGVPDRFSGSGSGTDFTLKISRVEAEDVGVYYCMQALQTPLTFGQGTKVEIK
B11: MAdCAM antibody Clone ID 5 of Table 6 (scFv) (scFv)
scFv: EVQLLESGGGLVQPGGSLRLSCAASGFTFSSYWMHWVRQAPGKGLEWVSSISPGGSNIDYADSVKGRFTISRDNSKNTLYLQMNSLRAEDTAVYYCAREVQLSHYDYWGQGTLVTVSSGGGGSGGGGSGGGGSGGGGSDIQMTQSPSSLSASVGDRVTITCRASQGISNSLAWYQQKPGKAPKLLIYGASSLQSGVPSRFSGSGSGTDFTLTISSLQPEDFATYYCQQANSFPFTFGQGTKVEIK
B12: MAdCAM antibody Clone ID 20 of Table 7 (IgG) (antibody, V domains shown)
VH: EVQLLESGGGLVQPGGSLRLSCAASGFTFSDSAMHWVRQAPGKGLEWVSAISGSGSTIYYADSVKGRFTISRDNSKNTLYLQMNSLRAEDTAVYYCVSDIAVAGHWYFDLWGRGTLVTVSS
VL: DIQMTQSPSSLSASVGDRVTITCRASQSISTFLNWYQQKPGKAPKLLIYAASRLEGGVPSRFSGSGSGTDFTLTISSLQPEDFATYYCQQANSFPLTFGPGTKVDIK
B13: MAdCAM antibody Clone ID 23 of Table 7 (IgG) (antibody, V domains shown)
VH: EVQLLESGGGLVQPGGSLRLSCAASGFTFDDYAMHWVRQAPGKGLEWVSYIDTSSSHLYYADSVKGRFTISRDNSKNTLYLQMNSLRAEDTAVYYCARDEAAAGYYGMDVWGQGTTVTVSS
VL: B6 VL with S26G, S32Y, A50D, S53N, Q55E, S56T, S91T, S94T, V95P, V104L
B14: MAdCAM antibody Clone ID 30 of Table 7 (IgG) (antibody, V domains shown)
VH: EVQLLESGGGLVQPGGSLRLSCAASGFTFSSYAMHWVRQAPGKGLEWVSGISGSGGSAYYADSVKGRFTISRDNSKNTLYLQMNSLRAEDTAVYYCATSQAPVDYYYYGMDVWGQGTTVTVSS
VL: B6 VL with Q24R, D28S, N31S, S32W, N34A, S53N, S56R, S94I, V95P
B15: MAdCAM antibody Clone ID 55 of Table 7 (IgG) (antibody, V domains shown)
VH: EVQLLESGGGLVQPGGSLRLSCAASGFTFDDFAMHWVRQAPGKGLEWVSGISGNGDSRYYADSVKGRFTISRDNSKNTLYLQMNSLRAEDTAVYYCARDASYGGNYGMDVWGQGTTVTVSS
VL: B12 VL with R24Q, S28D, S30R, T31N, F32Y, A50K, R53T, G56S
B16: MAdCAM antibody Clone ID 60 of Table 7 (IgG) (antibody, V domains shown)
VH: EVQLLESGGGLVQPGGSLRLSCAASGFTFSDHGMHWVRQAPGKGLEWVSVIYGGESTYYADSVKGRFTISRDNSKNTLYLQMNSLRAEDTAVYYCARDPAVAGGGIFDYWGQGTLVTVSS
VL: DIQMTQSPSSLSASVGDRVTITCRASQGISNYLAWYQQKPGKAPKLLIYDASNLETGVPSRFSGSGSGTDFTLTISSLQPEDFATYYCQQSYSTCYTFGQGTKLEIK
B17: MAdCAM antibody Clone ID 7 of Table 6 (scFv) (scFv)
scFv: QVQLVQSGAEVKKPGASVKVSCKASGYTFTGYHIHWVRQAPGQGLEWMGIINPSGGSTIYAQKFQGRVTMTRDTSTSTVYMELSSLRSEDTAVYYCAKDWSSWYLGPFDYWGQGTLVTVSSGGGGSGGGGSGGGGSGGGGSDIQMTQSPSSLSASVGDRVTITCRASQNISSSLNWYQQKPGKAPKLLIYAASSLQSGVPSRFSGSGSGTDFTLTISSLQPEDFATYYCQQSYTTPYTFGQGTKVEIK
B18: MAdCAM antibody Clone ID 63 of Table 7 (IgG) (antibody, V domains shown)
VH: EVQLLESGGGLVQPGGSLRLSCAASGFTFNNYGMNWVRQAPGKGLEWVSRINSDGSSTSYADSVKGRFTISRDNSKNTLYLQMNSLRAEDTAVYYCARGAYYYYYMDVWGQGTLVTVSS
VL: EIVMTQSPATLSVSPGERATLSCRASQSVSGSYLAWYQQKPGQAPRLLIYATSSRASGIPARFSGSGSGTEFTLTISSLQSEDFAVYYCQQYYSGLTFGQGTKVEIK
B19: MAdCAM antibody Clone ID 65 of Table 7 (IgG) (antibody, V domains shown)
VH: QVQLVQSGAEVKKPGASVKVSCKASGYTFTSYDINWVRQAPGQGLEWMGWMNPNSGNTGYAQKFQGRVTMTRDTSTSTVYMELSSLRSEDTAVYYCAKDSDYSNLLWDYWGQGTLVTVSS
VL: B6 VL with Q24R, S30T, S32D, N34G, A50Q, Q55E, S93T, S94I, V95P, I96L
B20: MAdCAM antibody Clone ID 74 of Table 7 (IgG) (antibody, V domains shown)
VH: QVQLVQSGAEVKKPGASVKVSCKASGYTFTGYYMHWVRQAPGQGLEWMGIINPSGGNTKYAQKFQGRVTMTRDTSTSTVYMELSSLRSEDTAVYYCTTADYYYYMDVWGKGTTVTVSS
VL: DIQMTQSPSSLSASVGDRVTITCRASQGISNYLAWYQQKPGKAPKLLIYAASSLQSGVPSRFSGSGSGTDFTLTISSLQPEDFATYYCQQYYSNADFGQGTKVEIK
B21: MAdCAM antibody Clone ID 76 of Table 7 (IgG) (antibody, V domains shown)
VH: EVQLLESGGGLVQPGGSLRLSCAASGFTFDDYTMHWVRQAPGKGLEWVSDISGSGGSTYYADSVKGRFTISRDNSKNTLYLQMNSLRAEDTAVYYCAKDVVVAGTPLHFDYWGQGTLVTVSS
VL: B6 VL with S32Y, S53Y, S91A, Y92H, S93N, S94Y, V95P, K103R, V104L
B22: MAdCAM antibody Clone ID 79 of Table 7 (IgG) (antibody, V domains shown)
VH: EVQLLESGGGLVKPGGSLRLSCAASGFTFDDYAMHWVRQAPGKGLEWVASITSSSAFIDYAASVKGRFTISRDDSKNTLYLQMNSLKTEDTAVYYCARERVDWNSYFDLWGRGTLVTVSS
VL: EIVMTQSPATLSVSPGERATLSCRASQGISNSYLAWYQQKPGQAPRLLIYGASTRATGIPARFSGSGSGTEFTLTISSLQSEDFAVYYCQQYYTYPPTFGPGTKVDIK

Target: Cyno MAdCAM protein (cyno)
Test: Octet

binding, binds:
B1
B2
B3
B4
B5
B6
B7
B8
B9
B10
B11
B12
B13
B14
B15
B16
B17
B18
B19
B20
B21
B22

Positions count from the first letter of the chain named. These are yes or no findings as the source states them, for the method shown. Binding can be weak; no strength is given.
